# According to the supplement of paper PMC10849652:
# By UniProt entry, the sequences of proteins in these tests, tags left out. Where a name states a change or a piece, a line headed by the entry shows the natural chain unless it says otherwise.
# UniProt Q9UFN0: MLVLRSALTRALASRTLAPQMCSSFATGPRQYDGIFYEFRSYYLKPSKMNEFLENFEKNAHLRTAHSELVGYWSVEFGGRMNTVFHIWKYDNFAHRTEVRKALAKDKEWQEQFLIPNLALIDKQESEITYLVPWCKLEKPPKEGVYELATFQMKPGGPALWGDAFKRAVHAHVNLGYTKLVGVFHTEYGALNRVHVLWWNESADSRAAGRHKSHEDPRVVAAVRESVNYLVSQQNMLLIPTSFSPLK
# UniProt Q15653: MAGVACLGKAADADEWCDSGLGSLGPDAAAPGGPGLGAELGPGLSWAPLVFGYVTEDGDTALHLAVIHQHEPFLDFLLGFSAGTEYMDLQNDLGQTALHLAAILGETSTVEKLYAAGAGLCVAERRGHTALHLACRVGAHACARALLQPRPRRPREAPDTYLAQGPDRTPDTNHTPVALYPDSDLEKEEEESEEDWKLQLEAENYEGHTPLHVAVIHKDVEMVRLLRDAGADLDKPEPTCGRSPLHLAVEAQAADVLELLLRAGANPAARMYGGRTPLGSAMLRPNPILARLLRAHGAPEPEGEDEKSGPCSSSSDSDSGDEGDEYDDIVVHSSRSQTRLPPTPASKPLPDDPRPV
# UniProt P21359: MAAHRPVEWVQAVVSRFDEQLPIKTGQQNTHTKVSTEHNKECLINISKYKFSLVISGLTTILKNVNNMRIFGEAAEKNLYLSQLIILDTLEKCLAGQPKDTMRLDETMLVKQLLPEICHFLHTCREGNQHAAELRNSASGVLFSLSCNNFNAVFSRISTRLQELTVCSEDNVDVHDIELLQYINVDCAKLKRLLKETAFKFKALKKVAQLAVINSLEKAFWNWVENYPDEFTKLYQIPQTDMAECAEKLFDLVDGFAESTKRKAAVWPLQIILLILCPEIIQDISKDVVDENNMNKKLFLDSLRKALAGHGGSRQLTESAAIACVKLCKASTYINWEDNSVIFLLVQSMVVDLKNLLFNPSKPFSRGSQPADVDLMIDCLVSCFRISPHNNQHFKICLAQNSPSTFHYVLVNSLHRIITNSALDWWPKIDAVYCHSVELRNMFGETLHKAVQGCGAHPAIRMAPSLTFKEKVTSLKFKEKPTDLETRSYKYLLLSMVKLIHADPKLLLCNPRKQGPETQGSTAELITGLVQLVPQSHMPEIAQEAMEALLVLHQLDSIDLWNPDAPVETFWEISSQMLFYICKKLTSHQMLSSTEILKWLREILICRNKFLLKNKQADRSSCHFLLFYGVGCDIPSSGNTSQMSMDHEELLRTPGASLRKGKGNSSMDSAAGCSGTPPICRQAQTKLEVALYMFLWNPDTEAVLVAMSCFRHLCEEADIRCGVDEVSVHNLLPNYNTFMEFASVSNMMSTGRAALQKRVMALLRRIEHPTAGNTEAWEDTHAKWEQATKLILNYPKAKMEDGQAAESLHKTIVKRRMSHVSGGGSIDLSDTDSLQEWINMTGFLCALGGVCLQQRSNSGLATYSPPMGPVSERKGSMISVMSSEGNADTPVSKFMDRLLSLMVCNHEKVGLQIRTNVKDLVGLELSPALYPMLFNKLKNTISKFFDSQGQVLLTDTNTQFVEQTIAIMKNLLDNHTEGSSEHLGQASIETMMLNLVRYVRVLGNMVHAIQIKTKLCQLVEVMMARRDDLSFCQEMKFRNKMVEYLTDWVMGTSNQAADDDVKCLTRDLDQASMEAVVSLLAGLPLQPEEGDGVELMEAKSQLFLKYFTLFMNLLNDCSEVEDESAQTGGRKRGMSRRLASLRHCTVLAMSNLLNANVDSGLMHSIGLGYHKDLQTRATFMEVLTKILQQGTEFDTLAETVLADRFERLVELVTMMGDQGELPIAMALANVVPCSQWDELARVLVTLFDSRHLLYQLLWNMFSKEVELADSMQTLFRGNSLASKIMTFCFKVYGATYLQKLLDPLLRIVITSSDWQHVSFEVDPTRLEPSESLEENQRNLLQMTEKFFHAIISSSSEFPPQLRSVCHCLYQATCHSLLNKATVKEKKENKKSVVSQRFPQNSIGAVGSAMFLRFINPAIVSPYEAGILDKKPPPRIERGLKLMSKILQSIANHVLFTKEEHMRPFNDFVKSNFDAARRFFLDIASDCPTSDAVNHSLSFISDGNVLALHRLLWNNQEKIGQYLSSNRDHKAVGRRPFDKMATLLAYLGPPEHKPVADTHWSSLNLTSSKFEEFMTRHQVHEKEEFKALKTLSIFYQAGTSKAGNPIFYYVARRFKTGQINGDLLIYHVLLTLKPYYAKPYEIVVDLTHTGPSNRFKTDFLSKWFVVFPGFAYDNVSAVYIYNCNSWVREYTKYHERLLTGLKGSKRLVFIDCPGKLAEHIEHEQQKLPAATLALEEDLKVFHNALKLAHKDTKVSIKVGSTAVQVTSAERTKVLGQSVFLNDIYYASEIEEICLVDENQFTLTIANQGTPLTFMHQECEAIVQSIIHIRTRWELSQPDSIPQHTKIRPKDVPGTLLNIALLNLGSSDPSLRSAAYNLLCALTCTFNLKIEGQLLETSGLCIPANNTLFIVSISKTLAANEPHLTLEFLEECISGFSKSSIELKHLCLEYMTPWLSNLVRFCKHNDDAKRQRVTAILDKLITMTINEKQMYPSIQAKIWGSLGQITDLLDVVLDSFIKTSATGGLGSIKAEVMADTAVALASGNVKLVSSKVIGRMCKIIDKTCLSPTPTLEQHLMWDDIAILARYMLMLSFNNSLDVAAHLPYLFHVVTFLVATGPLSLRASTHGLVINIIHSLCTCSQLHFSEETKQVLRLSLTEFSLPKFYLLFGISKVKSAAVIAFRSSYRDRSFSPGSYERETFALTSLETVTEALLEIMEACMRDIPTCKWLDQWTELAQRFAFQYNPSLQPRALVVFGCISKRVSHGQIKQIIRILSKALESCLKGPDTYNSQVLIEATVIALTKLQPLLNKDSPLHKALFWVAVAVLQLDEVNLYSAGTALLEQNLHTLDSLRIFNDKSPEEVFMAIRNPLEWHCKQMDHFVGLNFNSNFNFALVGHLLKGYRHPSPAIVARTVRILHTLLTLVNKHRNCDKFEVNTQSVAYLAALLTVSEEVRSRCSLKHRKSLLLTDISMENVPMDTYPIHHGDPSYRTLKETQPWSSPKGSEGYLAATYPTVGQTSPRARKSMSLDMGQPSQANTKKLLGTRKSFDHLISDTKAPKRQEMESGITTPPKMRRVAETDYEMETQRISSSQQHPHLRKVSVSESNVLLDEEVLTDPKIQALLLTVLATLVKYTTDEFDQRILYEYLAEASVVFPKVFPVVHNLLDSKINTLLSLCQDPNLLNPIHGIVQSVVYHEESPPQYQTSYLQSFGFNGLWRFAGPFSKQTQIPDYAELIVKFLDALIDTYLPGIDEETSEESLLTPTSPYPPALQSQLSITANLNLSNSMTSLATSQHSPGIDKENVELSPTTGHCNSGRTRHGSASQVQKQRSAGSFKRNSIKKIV
# UniProt P46459: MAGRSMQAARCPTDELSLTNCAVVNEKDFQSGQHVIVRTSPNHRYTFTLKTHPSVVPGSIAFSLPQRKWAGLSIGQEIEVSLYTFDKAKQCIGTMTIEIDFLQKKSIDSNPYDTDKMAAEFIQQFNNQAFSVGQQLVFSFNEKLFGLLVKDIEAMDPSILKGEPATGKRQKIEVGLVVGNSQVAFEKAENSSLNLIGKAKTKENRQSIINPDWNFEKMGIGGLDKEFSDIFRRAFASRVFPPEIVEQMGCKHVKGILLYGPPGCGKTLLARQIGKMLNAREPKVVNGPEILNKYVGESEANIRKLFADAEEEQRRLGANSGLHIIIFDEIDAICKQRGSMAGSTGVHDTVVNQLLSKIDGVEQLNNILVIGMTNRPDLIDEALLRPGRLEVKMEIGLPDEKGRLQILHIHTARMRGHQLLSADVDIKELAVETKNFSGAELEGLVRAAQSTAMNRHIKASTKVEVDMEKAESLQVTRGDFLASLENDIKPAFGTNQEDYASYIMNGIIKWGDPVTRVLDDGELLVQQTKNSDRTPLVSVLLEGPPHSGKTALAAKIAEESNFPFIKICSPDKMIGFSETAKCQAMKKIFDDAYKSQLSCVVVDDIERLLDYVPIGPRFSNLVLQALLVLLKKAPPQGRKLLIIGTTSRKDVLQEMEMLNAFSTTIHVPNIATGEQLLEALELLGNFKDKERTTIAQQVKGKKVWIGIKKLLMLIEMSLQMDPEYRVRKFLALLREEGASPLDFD
# UniProt Q9H9Q4: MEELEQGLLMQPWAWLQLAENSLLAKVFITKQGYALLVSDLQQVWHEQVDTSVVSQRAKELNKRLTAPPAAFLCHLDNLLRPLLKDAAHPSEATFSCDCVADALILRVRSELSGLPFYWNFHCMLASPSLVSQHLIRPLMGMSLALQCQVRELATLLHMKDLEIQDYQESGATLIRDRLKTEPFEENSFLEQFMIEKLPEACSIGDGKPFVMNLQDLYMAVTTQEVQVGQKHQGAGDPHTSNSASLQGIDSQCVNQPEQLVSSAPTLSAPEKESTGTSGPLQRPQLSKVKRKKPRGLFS
# UniProt Q9UGY1: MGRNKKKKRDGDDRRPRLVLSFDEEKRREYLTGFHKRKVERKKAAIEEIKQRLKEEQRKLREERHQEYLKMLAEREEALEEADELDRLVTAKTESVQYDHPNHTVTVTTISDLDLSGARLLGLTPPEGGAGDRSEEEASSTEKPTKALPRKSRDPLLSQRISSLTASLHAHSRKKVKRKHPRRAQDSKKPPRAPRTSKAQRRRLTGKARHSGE
# UniProt Q16621: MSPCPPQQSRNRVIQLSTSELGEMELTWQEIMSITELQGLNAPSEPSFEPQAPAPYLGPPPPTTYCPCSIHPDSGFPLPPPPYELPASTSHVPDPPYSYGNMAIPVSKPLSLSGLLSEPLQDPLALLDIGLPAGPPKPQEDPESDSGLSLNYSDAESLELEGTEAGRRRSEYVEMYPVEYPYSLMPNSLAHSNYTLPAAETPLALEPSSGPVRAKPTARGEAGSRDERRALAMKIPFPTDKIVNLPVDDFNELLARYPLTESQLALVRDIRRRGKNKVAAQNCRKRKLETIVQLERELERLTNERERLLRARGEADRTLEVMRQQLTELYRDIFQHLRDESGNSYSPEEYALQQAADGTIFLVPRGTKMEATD
# UniProt Q13423: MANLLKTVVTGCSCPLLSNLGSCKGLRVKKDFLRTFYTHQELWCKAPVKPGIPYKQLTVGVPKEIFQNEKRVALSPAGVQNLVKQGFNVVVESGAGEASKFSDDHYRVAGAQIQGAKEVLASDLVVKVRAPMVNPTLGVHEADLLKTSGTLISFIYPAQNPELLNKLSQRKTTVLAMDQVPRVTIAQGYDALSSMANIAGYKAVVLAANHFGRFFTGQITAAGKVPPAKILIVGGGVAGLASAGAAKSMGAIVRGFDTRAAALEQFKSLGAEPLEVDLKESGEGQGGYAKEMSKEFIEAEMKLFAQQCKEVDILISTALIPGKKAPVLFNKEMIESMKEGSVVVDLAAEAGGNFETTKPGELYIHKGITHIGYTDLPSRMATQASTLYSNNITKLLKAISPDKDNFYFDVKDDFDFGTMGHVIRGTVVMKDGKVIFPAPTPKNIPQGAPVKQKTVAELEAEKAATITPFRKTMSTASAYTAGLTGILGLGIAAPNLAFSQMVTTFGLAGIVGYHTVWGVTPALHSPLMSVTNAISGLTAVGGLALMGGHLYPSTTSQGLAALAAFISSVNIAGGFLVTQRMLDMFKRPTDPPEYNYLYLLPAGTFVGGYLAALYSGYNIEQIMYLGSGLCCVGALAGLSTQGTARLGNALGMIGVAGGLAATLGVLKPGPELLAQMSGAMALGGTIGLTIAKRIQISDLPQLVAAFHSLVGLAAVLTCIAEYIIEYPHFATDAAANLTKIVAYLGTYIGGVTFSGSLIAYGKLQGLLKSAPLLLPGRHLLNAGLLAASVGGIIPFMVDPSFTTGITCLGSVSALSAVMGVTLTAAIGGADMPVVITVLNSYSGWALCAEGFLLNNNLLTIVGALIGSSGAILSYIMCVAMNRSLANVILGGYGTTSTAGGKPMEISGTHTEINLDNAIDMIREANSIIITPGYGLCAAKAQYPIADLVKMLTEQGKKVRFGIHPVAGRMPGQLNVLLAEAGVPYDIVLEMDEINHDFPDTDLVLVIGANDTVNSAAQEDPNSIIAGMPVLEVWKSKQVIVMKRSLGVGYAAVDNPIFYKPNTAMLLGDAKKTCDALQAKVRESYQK
# UniProt Q9UNZ2: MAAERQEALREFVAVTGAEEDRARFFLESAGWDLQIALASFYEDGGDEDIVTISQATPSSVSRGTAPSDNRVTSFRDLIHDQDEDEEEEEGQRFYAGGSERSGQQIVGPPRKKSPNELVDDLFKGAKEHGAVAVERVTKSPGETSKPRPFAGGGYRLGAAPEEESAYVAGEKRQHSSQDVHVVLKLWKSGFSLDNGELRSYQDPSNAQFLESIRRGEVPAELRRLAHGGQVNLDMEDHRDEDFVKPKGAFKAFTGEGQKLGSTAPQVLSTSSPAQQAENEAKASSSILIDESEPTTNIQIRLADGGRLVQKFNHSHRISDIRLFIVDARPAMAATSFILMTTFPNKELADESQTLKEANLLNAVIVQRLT
# The other results are listed elsewhere or left out.
# Columns and labels:
# Test in all cases: log2 fold change, soluble protein after heating vs DMSO (PISA); higher = thermal stabilisation; K562 cells, 10 uM, 30 min; active = over 0.2 and 3.5 SD of the protein, either way, in both replicates (recomputed)
# [1] = compound: CS(=O)(=O)c1ccc(-c2cnc(N)c(C(=O)Nc3ccccc3)n2)cc1
# Procedure, shortened: (§1)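 Soluble protein was quantified by TMTpro 16plex LC-MS/MS after channel sums were equalised. It was obtained as the supernatant after 21,000xg for 90 min from pooled aliquots of K562 cells (2×10^6 cells/mL, 10 μM compound, 30 min) heated for 3 min across 48°C-58°C and extracted in PBS with 0.5% NP-40 at 4°C. Thermal stability values are relative to control samples and come from duplicates. They are given as log2 fold changes.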
# crizotinib = compound: C[C@@H](Oc1cc(-c2cnn(C3CCNCC3)c2)cnc1N)c1c(Cl)ccc(F)c1Cl [crizotinib]
# Procedure, shortened: as §1
# [2] = compound: C[C@@H]1COCCN1C2=NC(=NC(=C2)C3(CC3)S(=O)(=O)C)C4=C5C=CNC5=CC=C4
# Procedure, shortened: as §1
# [3] = compound: C[C@H](C1=CC=C(C=C1)C(=O)NC2=C3C=CNC3=NC=C2)N
# Procedure, shortened: as §1
# duvelisib = compound: C[C@H](Nc1ncnc2nc[nH]c12)c1cc2cccc(Cl)c2c(=O)n1-c1ccccc1 [duvelisib]
# Procedure, shortened: as §1
# gandotinib = compound: Cc1cc(Nc2cc(CN3CCOCC3)c3nc(C)c(Cc4ccc(Cl)cc4F)n3n2)n[nH]1 [gandotinib]
# Procedure, shortened: as §1
# tozasertib = compound: Cc1cc(Nc2cc(N3CCN(C)CC3)nc(Sc3ccc(NC(=O)C4CC4)cc3)n2)n[nH]1 [tozasertib]
# Procedure, shortened: as §1
# [4] = compound: Cc1cc(SCc2sc(-c3ccc(C(F)(F)F)cc3)nc2C)ccc1OCC(=O)O
# Procedure, shortened: as §1
# doramapimod = compound: Cc1ccc(-n2nc(C(C)(C)C)cc2NC(=O)Nc2ccc(OCCN3CCOCC3)c3ccccc23)cc1 [doramapimod]
# Procedure, shortened: as §1
# ispinesib = compound: Cc1ccc(C(=O)N(CCCN)[C@@H](c2nc3cc(Cl)ccc3c(=O)n2Cc2ccccc2)C(C)C)cc1 [ispinesib]
# Procedure, shortened: as §1
# bafetinib = compound: Cc1ccc(NC(=O)c2ccc(CN3CC[C@H](N(C)C)C3)c(C(F)(F)F)c2)cc1Nc1nccc(-c2cncnc2)n1 [bafetinib]
# Procedure, shortened: as §1
# [5] = compound: Cc1cccc(CC(=O)N2CCc3c2ccc(-c2cn(C)c4ncnc(N)c24)c3F)n1
# Procedure, shortened: as §1
# nilotinib = compound: Cc1cn(-c2cc(NC(=O)c3ccc(C)c(Nc4nccc(-c5cccnc5)n4)c3)cc(C(F)(F)F)c2)cn1 [nilotinib]
# Procedure, shortened: as §1
# [6] = compound: Cc1nc(Nc2n[nH]c3c2CN(C(=O)N[C@H](CN(C)C)c2ccccc2)C3(C)C)c2sccc2n1
# Procedure, shortened: as §1
# dasatinib = compound: Cc1nc(Nc2ncc(C(=O)Nc3c(C)cccc3Cl)s2)cc(N2CCN(CCO)CC2)n1 [dasatinib]
# Procedure, shortened: as §1
# [7] = compound: Cc1ncc(-c2ccnc(Nc3ccc(S(C)(=O)=O)cc3)n2)n1C(C)C
# Procedure, shortened: as §1
# [8] = compound: Cn1cc(-c2ccc3c(c2)CCN3C(=O)Cc2cccc(C(F)(F)F)c2)c2c(N)ncnc21
# Procedure, shortened: as §1
# [9] = compound: Cn1cc(-c2ccc3nnc(C(F)(F)c4ccc5ncccc5c4)n3n2)cn1
# Procedure, shortened: as §1
# tipifarnib = compound: Cn1cncc1[C@@](N)(c1ccc(Cl)cc1)c1ccc2c(c1)c(-c1cccc(Cl)c1)cc(=O)n2C [tipifarnib]
# Procedure, shortened: as §1
# mubritinib = compound: FC(F)(F)c1ccc(/C=C/c2nc(COc3ccc(CCCCn4ccnn4)cc3)co2)cc1 [mubritinib]
# Procedure, shortened: as §1
Target,log2 fold change [1],log2 fold change (crizotinib),log2 fold change [2],log2 fold change [3],log2 fold change (duvelisib),log2 fold change (gandotinib),log2 fold change (tozasertib),log2 fold change [4],log2 fold change (doramapimod),log2 fold change (ispinesib),log2 fold change (bafetinib),log2 fold change [5],log2 fold change (nilotinib),log2 fold change [6],log2 fold change (dasatinib),log2 fold change [7],log2 fold change [8],log2 fold change [9],log2 fold change (tipifarnib),log2 fold change (mubritinib)
NIPSNAP3A (UniProt Q9UFN0),inactive: 0.021,inactive: 0.043,inactive: 0.01,inactive: -0.067,inactive: -0.008,inactive: 0.047,inactive: 0,inactive: -0.06,inactive: -0.002,inactive: -0.026,inactive: -0.055,inactive: 0.013,inactive: 0.035,inactive: 0,inactive: 0.035,inactive: 0.009,inactive: -0.009,inactive: 0.011,inactive: 0.047,inactive: 0.047
NFKBIB (UniProt Q15653),inactive: 0.066,inactive: -0.008,inactive: 0.053,inactive: -0.014,inactive: 0.002,inactive: -0.038,inactive: 0.075,inactive: 0.06,inactive: -0.013,inactive: -0.055,inactive: -0.059,inactive: -0.001,inactive: 0.044,inactive: -0.236,inactive: -0.061,inactive: -0.074,inactive: 0.013,inactive: 0.009,inactive: 0.014,inactive: 0.049
NF1 (UniProt P21359),inactive: 0.058,inactive: 0,inactive: 0.015,inactive: -0.018,inactive: 0.069,inactive: -0.052,inactive: 0,inactive: 0.021,inactive: 0,inactive: 0.063,inactive: -0.054,inactive: -0.198,inactive: -0.083,inactive: 0.095,inactive: 0.094,inactive: -0.139,inactive: 0.075,inactive: 0.007,inactive: 0.239,inactive: 0.006
NSF (UniProt P46459),inactive: 0.028,inactive: -0.078,inactive: 0.047,inactive: 0.019,inactive: 0.015,inactive: -0.07,inactive: -0.008,inactive: 0.075,inactive: -0.029,inactive: -0.09,inactive: -0.008,inactive: 0.02,inactive: -0.01,inactive: 0.021,inactive: -0.114,inactive: -0.01,inactive: 0.041,inactive: 0.017,inactive: -0.033,inactive: -0.013
NIT2 (UniProt Q9NQR4),inactive: 0.046,inactive: 0.047,inactive: 0.105,inactive: -0.042,inactive: 0.076,inactive: 0.057,inactive: -0.012,inactive: -0.02,inactive: -0.046,inactive: -0.025,inactive: -0.061,inactive: -0.02,inactive: -0.029,inactive: 0.011,inactive: 0.019,inactive: 0.011,inactive: 0.026,inactive: 0.063,inactive: -0.024,inactive: 0.006
NHEJ1 (UniProt Q9H9Q4),inactive: -0.001,inactive: -0.122,inactive: 0.02,inactive: -0.16,inactive: -0.096,inactive: -0.063,inactive: 0.13,inactive: 0.082,inactive: 0.098,inactive: 0.091,inactive: 0.055,inactive: 0.156,inactive: 0.007,inactive: 0.014,inactive: -0.152,inactive: 0.015,inactive: 0.08,inactive: 0,inactive: -0.065,inactive: 0.1
NSD3 (UniProt Q9BZ95),inactive: -0.189,inactive: -0.049,inactive: -0.451,inactive: 0.086,inactive: -0.101,inactive: -0.187,inactive: -0.045,inactive: -0.341,inactive: 0.02,–,inactive: -0.234,inactive: 0.036,–,–,inactive: 0.255,–,inactive: -0.13,–,–,–
NEMF (UniProt O60524),inactive: -0.039,inactive: 0.006,inactive: -0.445,inactive: 0.31,inactive: -0.234,inactive: 0.213,inactive: -0.007,inactive: 0.027,inactive: 0.295,inactive: -0.257,inactive: 0.271,inactive: -0.029,inactive: -0.1,inactive: 0.128,inactive: 0.072,inactive: -0.014,inactive: -0.246,inactive: -0.178,inactive: 0.022,inactive: -0.079
NFKB1 isoform 2 (UniProt P19838),inactive: 0.058,inactive: -0.004,inactive: -0.112,inactive: 0.176,inactive: 0.027,inactive: -0.018,inactive: 0.119,inactive: 0.123,–,inactive: -0.056,inactive: -0.018,inactive: 0.159,inactive: -0.058,inactive: -0.399,–,inactive: -0.053,inactive: 0.041,inactive: -0.036,inactive: 0.049,inactive: -0.062
NOL12 (UniProt Q9UGY1),inactive: 0.093,inactive: 0.038,inactive: -0.456,inactive: 0.449,inactive: -0.219,inactive: 0.322,inactive: 0.119,inactive: 0.024,inactive: 0.152,inactive: -0.016,inactive: 0.183,inactive: -0.006,inactive: -0.026,inactive: 0.161,inactive: 0.179,inactive: 0.044,inactive: -0.335,inactive: -0.147,inactive: 0.136,inactive: -0.154
NFE2 (UniProt Q16621),inactive: -0.006,inactive: -0.052,inactive: -0.001,inactive: -0.031,–,inactive: -0.091,–,inactive: -0.015,inactive: 0.049,inactive: 0.033,inactive: -0.048,inactive: -0.13,inactive: -0.063,inactive: -0.068,inactive: -0.016,inactive: -0.071,inactive: -0.051,inactive: -0.08,inactive: -0.066,inactive: 0.026
NMNAT1 (UniProt Q9HAN9),inactive: -0.053,inactive: -0.016,inactive: -0.435,inactive: 0.164,–,inactive: 0.132,–,inactive: -0.056,inactive: 0.296,inactive: -0.212,inactive: 0.052,inactive: -0.034,inactive: -0.073,inactive: 0.023,inactive: 0.159,inactive: -0.047,inactive: -0.143,inactive: -0.21,inactive: 0.118,inactive: -0.047
NNT (UniProt Q13423),inactive: 0.031,inactive: 0.032,inactive: 0.047,inactive: -0.06,–,active: -0.246,–,inactive: -0.006,inactive: -0.023,inactive: 0.02,inactive: -0.02,inactive: 0.056,inactive: -0.005,inactive: -0.006,inactive: -0.02,inactive: -0.018,inactive: 0.071,inactive: 0.037,inactive: -0.034,inactive: 0.021
NSFL1C isoform 5 (UniProt Q9UNZ2),inactive: -0.021,inactive: 0.014,inactive: 0.049,inactive: -0.008,inactive: 0.036,inactive: -0.072,inactive: 0.032,inactive: 0,inactive: 0.012,inactive: 0.04,inactive: -0.005,inactive: 0.014,inactive: -0.002,inactive: -0.031,inactive: -0.024,inactive: -0.001,inactive: 0.006,inactive: -0.016,inactive: -0.038,inactive: 0.047
NLRC3 isoform 2 (UniProt Q7RTR2),inactive: 0.04,inactive: 0.179,inactive: 0.025,inactive: 0.529,inactive: 0.13,–,–,inactive: -0.241,inactive: -0.12,inactive: -0.256,inactive: -0.184,–,inactive: -0.231,inactive: 0.047,inactive: 0.05,inactive: -0.114,inactive: -0.116,inactive: 0.085,inactive: 0.268,inactive: 0.055
NOC2L (UniProt Q9Y3T9),inactive: 0.035,inactive: 0.034,inactive: 0.031,inactive: 0.01,inactive: 0.012,inactive: -0.044,inactive: 0.022,inactive: 0.099,inactive: -0.039,–,inactive: -0.049,inactive: -0.05,inactive: 0.017,inactive: -0.045,inactive: -0.02,inactive: -0.026,inactive: -0.099,–,inactive: 0.107,inactive: -0.015

# A different layout for some results above.
Target	log2 fold change [1]	log2 fold change (crizotinib)	log2 fold change [2]	log2 fold change [3]	log2 fold change (duvelisib)	log2 fold change (gandotinib)	log2 fold change (tozasertib)	log2 fold change [4]	log2 fold change (doramapimod)	log2 fold change (ispinesib)	log2 fold change (bafetinib)	log2 fold change [5]	log2 fold change (nilotinib)	log2 fold change [6]	log2 fold change (dasatinib)	log2 fold change [7]	log2 fold change [8]	log2 fold change [9]	log2 fold change (tipifarnib)	log2 fold change (mubritinib)
NNT (UniProt Q13423)	inactive: 0.031	inactive: 0.032	inactive: 0.047	inactive: -0.06	–	active: -0.246	–	inactive: -0.006	inactive: -0.023	inactive: 0.02	inactive: -0.02	inactive: 0.056	inactive: -0.005	inactive: -0.006	inactive: -0.02	inactive: -0.018	inactive: 0.071	inactive: 0.037	inactive: -0.034	inactive: 0.021
NSFL1C isoform 5 (UniProt Q9UNZ2)	inactive: -0.021	inactive: 0.014	inactive: 0.049	inactive: -0.008	inactive: 0.036	inactive: -0.072	inactive: 0.032	inactive: 0	inactive: 0.012	inactive: 0.04	inactive: -0.005	inactive: 0.014	inactive: -0.002	inactive: -0.031	inactive: -0.024	inactive: -0.001	inactive: 0.006	inactive: -0.016	inactive: -0.038	inactive: 0.047
